Results are given in words; binding and its absence hold for the method and conditions named. Binding can be weak; no strength is given.
Experiments:
[1] = target: T1, human thyroid hormone receptor beta (human) (UniProt P10828); assay: gel mobility shift, MLV-TRE probe, in vitro translated proteins
T1 sequence (looked up): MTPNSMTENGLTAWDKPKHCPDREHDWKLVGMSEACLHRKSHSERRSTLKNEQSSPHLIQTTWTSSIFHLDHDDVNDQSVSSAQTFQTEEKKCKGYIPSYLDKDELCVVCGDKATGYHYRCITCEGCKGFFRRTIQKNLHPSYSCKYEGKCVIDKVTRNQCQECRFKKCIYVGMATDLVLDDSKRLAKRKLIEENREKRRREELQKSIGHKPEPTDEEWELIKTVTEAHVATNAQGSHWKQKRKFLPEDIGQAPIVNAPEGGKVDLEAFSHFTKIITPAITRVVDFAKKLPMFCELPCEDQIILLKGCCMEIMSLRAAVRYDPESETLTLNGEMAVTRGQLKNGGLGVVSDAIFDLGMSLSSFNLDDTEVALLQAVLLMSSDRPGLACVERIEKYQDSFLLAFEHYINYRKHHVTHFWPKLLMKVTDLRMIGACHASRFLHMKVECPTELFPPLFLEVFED

[2] = target: T2, Drosophila ecdysone receptor (Drosophila) (UniProt P34021); assay: gel mobility shift, hsp27-EcRE probe, S2 extract, with usp antibody supershift
T2 sequence (looked up): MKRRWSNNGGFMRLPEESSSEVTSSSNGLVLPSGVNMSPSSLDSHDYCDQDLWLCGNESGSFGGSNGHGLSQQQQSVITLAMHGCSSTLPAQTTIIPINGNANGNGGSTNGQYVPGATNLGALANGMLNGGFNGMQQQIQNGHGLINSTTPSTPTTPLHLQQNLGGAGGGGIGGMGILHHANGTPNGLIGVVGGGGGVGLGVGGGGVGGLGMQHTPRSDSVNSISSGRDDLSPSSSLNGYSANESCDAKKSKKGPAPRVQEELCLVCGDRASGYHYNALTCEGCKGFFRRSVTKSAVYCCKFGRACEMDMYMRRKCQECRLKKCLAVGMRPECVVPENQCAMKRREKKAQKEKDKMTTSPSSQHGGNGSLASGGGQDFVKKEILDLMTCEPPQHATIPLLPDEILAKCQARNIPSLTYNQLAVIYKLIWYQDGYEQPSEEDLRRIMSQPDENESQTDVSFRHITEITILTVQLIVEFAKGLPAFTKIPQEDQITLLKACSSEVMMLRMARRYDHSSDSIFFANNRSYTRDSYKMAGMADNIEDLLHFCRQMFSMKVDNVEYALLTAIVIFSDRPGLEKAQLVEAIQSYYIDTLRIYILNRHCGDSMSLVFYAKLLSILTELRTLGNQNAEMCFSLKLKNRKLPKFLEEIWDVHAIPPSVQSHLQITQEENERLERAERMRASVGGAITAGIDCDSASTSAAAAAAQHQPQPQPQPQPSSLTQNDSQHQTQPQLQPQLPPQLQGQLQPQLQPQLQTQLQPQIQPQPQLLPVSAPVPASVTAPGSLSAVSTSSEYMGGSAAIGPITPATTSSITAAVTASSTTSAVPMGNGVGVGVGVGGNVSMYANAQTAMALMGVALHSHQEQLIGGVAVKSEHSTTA

[3] = target: T2, Drosophila ecdysone receptor (Drosophila); assay: gel mobility shift, hsp27-EcRE probe, Drosophila embryo extract, with usp antibody supershift
[4] = target: T3, rat peroxisome proliferator-activated receptor (rat) (UniProt P37230); assay: gel mobility shift, AOX-PPARE probe, in vitro translated proteins
T3 sequence (looked up): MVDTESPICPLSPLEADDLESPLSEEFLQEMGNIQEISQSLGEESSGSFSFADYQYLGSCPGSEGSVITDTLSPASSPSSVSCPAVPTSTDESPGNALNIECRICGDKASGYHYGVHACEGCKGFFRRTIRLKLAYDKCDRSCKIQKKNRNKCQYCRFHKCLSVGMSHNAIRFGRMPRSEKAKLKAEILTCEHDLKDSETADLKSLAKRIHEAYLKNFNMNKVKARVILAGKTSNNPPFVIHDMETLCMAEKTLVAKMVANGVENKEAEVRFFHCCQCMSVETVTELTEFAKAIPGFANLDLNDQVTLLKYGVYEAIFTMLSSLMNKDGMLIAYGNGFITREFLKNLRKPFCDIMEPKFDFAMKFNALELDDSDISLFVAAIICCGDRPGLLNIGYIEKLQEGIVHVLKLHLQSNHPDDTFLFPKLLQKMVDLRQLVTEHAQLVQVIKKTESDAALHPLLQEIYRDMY

[5] = target: T2, Drosophila ecdysone receptor (Drosophila); assay: gel mobility shift, hsp27-EcRE probe, in vitro translated EcR and usp
[6] = target: T4, human vitamin D receptor (human) (UniProt P11473); assay: gel mobility shift, SSP1-VDRE probe, in vitro translated proteins
T4 sequence (looked up): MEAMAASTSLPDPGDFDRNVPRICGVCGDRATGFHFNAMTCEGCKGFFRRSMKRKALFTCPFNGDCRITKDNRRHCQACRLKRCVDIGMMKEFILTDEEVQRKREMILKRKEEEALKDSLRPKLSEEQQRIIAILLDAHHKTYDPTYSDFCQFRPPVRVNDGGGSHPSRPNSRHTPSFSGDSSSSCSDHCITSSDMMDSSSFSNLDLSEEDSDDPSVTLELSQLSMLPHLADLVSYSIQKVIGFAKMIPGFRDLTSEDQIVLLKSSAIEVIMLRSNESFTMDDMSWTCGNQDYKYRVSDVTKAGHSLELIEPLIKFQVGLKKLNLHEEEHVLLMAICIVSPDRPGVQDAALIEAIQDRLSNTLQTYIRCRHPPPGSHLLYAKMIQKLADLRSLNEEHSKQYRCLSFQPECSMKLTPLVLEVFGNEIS

binding [1]: binds | binding [2]: binds | binding [3]: binds | binding [4]: binds | binding [5]: binds | binding [6]: binds
Substance: Drosophila ultraspiracle receptor

From patent US7119077
